Results: PubChem BioAssay AID624291 (National Center for Advancing Translational Sciences (NCATS), 2012)
Out of some 350,000 compounds screened, about 220 (0.063%) were called active. The shares of active, inactive and inconclusive entries below differ from those in the screen. Calls come from the whole dose curve; as a rule, active = well fitted activation curve with a large enough effect; inconclusive = small, poorly fitted or top-dose-only effect; inactive = no such curve, though single readings can be large or run the other way. Where the call is inconclusive, the potency comes from a doubtful curve fit.

experiment: qHTS for Activators of Integrin-Mediated Alleviation for Muscular Dystrophy; details: alpha7betagal myoblasts, beta-gal FDG fluorescence, 48 h; series mostly up to 38.3 µM; note: nearly all actives have a fitted effect of over 60% in size
Procedure, shortened: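 Alpha7betagal+/- myoblasts (passage 13) were plated 16-24 hr, then exposed to compounds (1:260 dilution of DMSO stock) for 48 hours at 37C. After MPER lysis, β-galactosidase reporter activity was read as FDG fluorescence (ex 480/em 540) after 30 minutes.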
Potency is the fitted concentration of half-maximal effect.

| SMILES | Potency |
| --- | --- |
| CC1CCCCN1CC(=O)Nc1ccc2c(c1)OC(F)(F)O2 (stereo not drawn) | inconclusive: 4.47 µM [activator, single point] |
| COc1ccc(C(=O)NCC2OCCc3ccccc32)cc1OC (stereo not drawn) | inconclusive: 5.01 µM [activator, single point] |
| CCOc1ccc(N2C(=O)C3=C(C(c4ccc(Cl)cc4)=NCCN3)C2c2cccnc2)cc1 (stereo not drawn) | inactive |
| O=C(c1cc(S(=O)(=O)N2CCOCC2)ccc1F)N(CCc1ccccc1)Cc1ccccc1 | inactive |
| O=C1c2ccccc2NC(c2ccc(F)cc2)N1Cc1ccccc1 (stereo not drawn) | inconclusive: 3.55 µM [activator, partial curve, poor fit] |
| O=C(NC1CC2CCCC(C1)N2Cc1ccccc1)C1CCCCC1 (stereo not drawn) | inconclusive: 10 µM [activator, single point] |
| Cc1nnc(NC(=O)CSc2ncc(-c3ccccc3)[nH]2)s1 | inactive |
| CCCn1c(C(C)Nc2nc(-c3ccc(C)cc3)cs2)nc2cc(Cl)c(Cl)cc21 (stereo not drawn) | inactive |
| CC(=O)Nc1ccc(NC(=O)CCNS(=O)(=O)c2cccc3nsnc23)cc1 | inconclusive: 10 µM [activator, single point] |
| N/C(=N\OC(=O)CCCOc1ccccc1)c1ccc([N+](=O)[O-])cc1 | inconclusive: 2.82 µM [activator, partial curve, poor fit] |
| O=C(O)c1ccc(-c2cccc([N+](=O)[O-])c2)o1 | inconclusive: 10 µM [activator, partial curve, poor fit] |
| CC(O)c1cccc(N=Cc2ccc3ccccc3c2O)c1 (stereo not drawn) | inconclusive: 8.91 µM [activator, single point] |
| Cc1ccc2nc(NC(=O)C3CCCN3C(=O)OC(C)(C)C)sc2c1 (stereo not drawn) | inconclusive: 15.8 µM [activator, single point] |
| O=C(Nc1cc(C(F)(F)F)ccc1Cl)C(NCc1ccccc1)c1ccccc1 (stereo not drawn) | inactive |
| COC(=O)[C@H](Cc1ccccc1)NC(=O)N1CCCCCC1 | inconclusive: 4.47 µM [activator, single point] |
| CCC1Oc2ccc(C)cc2N(CC(=O)N2CCCC2)C1=O (stereo not drawn) | inconclusive: 5.01 µM [activator, single point] |
| CC(C)C[C@@H](CNCC(=O)[C@H](CC(C)C)NC(=O)c1[nH]cnc1C(=O)N[C@@H](C)CN)NC(=O)c1nc[nH]c1C(=O)N[C@@H](CC(=O)O)C(=O)O | inactive |
| Cc1ccc(-c2noc(CNC(=O)c3ccc4c(c3)OCO4)n2)cc1 | inconclusive: 1.78 µM [activator, single point] |
| O=C(Nc1ccc(-n2cnnn2)cc1)C1CCCN1C(=O)Nc1ccc(Br)cc1 (stereo not drawn) | inactive |
| COc1ccc(CNC(=O)C2CCCN(C(=O)Nc3ccc(OC)cc3)C2)cc1 (stereo not drawn) | inconclusive: 12.6 µM [activator, single point] |
| CCCCNC(=O)CSc1nnc(Cc2ccc(Cl)c(Cl)c2)c(=O)[nH]1 | active: 1.41 µM |
| CC(=O)c1cccc(NC(=O)NC2CCCc3ccccc32)c1 (stereo not drawn) | inactive |

A few values from the entries so far.
For Potency, `CC1CCCCN1CC(=O)Nc1ccc2c(c1)OC(F)(F)O2` (stereo not drawn) shows inconclusive: 4.47 µM [activator, single point]
For Potency, `COc1ccc(CNC(=O)C2CCCN(C(=O)Nc3ccc(OC)cc3)C2)cc1` (stereo not drawn) shows inconclusive: 12.6 µM [activator, single point]
For Potency, `O=C(c1cc(S(=O)(=O)N2CCOCC2)ccc1F)N(CCc1ccccc1)Cc1ccccc1` shows inactive

(more compounds)

| SMILES | Potency |
| --- | --- |
| CCOc1ccc(N(CC(=O)Nc2ccc(OC)cc2)S(=O)(=O)c2c(C)[nH]c(=O)[nH]c2=O)cc1 | inconclusive: 11.2 µM [activator, single point] |
| CC(C)[C@H](NC(=O)c1ccccc1)C(=O)NC1CCCCCCC1 | inconclusive: 5.01 µM [activator, single point] |
| COc1cccc(NC(=O)NNC(=O)COc2ccc3ccccc3c2)c1 | inconclusive: 2.82 µM [activator, single point] |
| O=C(Nc1nc(-c2ccc(F)c(F)c2)cs1)c1cnccn1 | inconclusive: 12.6 µM [activator, single point] |
| CC(NC(=O)Nc1ccc(Cl)c(Cl)c1)C(c1ccccc1)N1CCOCC1 (stereo not drawn) | inconclusive: 4.47 µM [activator, single point] |
| CC(=O)Nc1cccc(-c2cn3ccccc3n2)c1 | inconclusive: 28.2 µM [activator, single point] |
| COC(=O)CSc1nc2cc3c(cc2cc1C#N)OCO3 | inactive |
| CN(c1ccccc1)S(=O)(=O)c1ccc(NC(=O)c2ccco2)cc1 | inconclusive: 28.2 µM [activator, single point] |
| C[C@H](CO)N1C[C@H](C)[C@@H](CN(C)S(=O)(=O)c2ccccc2)Oc2c(NC(=O)Nc3ccc4c(c3)OCO4)cccc2C1=O | inactive |
| COCC(C)NC(=O)COCc1cc(-c2ccc3c(c2)OCO3)on1 (stereo not drawn) | inconclusive: 2.82 µM [activator, partial curve, poor fit] |
| COc1ccc(-c2cn(-c3ccc(C)c(C)c3)c(=S)[nH]2)cc1OC | inactive |
| Cc1ccccc1-n1c(=O)n(CCc2ccccc2)c(=O)c2[nH]cnc21 | inactive |
| COCCn1c(-c2ccc(OC)cc2)c(-c2ccc(OC)cc2)oc1=O | inconclusive: 1.78 µM [activator, partial curve, poor fit] |
| O=C(COC(=O)CC(c1ccccc1)c1ccccc1)NCc1ccccc1 | inconclusive: 3.55 µM [activator, single point] |
| CS(=O)(=O)c1cnc(-c2cccnc2)nc1N | inactive |
| O=C(NCCc1ccccc1)c1n[nH]c(=O)c2ccccc12 | inconclusive: 11.2 µM [activator, partial curve, poor fit] |
| C[C@@H](O)CNC(=O)c1[nH]cnc1C(=O)Nc1ccc(CNC(=O)OC(C)(C)C)cc1 | inconclusive: 14.1 µM [activator, single point] |
| O=C(O)c1cc(N/N=C/C=C/c2ccccc2[N+](=O)[O-])ccc1Cl | inconclusive: 14.1 µM [activator, single point] |
| CC(OC(=O)c1nsc(Cl)c1Cl)C(=O)NCCc1ccccc1 (stereo not drawn) | inconclusive: 22.4 µM [activator, single point] |
| CC1CN(C(=O)CS(=O)(=O)Cc2ccc(Cl)cc2)CC(C)O1 (stereo not drawn) | inconclusive: 10 µM [activator, partial curve, poor fit] |
| Cc1ccc(NC(=O)CCOc2ccccc2C)cc1C | inconclusive: 5.01 µM [activator, single point] |
